From the supplement of paper PMC10849652
Some of the results follow.

The chains behind the UniProt entries cited, without tags or fusion partners. Where a name states a change or a piece, a line headed by the entry shows the natural chain unless it says otherwise.
UniProt Q9Y2R0: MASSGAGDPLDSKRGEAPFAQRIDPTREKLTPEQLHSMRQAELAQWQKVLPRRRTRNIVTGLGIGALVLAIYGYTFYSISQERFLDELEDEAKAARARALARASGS
UniProt Q9BT09: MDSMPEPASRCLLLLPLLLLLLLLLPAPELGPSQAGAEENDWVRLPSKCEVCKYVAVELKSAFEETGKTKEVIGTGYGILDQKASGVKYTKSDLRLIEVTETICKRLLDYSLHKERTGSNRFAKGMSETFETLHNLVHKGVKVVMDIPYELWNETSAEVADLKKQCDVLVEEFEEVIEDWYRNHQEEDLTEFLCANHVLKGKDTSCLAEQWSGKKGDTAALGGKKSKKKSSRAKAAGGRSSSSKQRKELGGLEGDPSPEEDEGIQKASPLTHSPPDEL
UniProt P53618: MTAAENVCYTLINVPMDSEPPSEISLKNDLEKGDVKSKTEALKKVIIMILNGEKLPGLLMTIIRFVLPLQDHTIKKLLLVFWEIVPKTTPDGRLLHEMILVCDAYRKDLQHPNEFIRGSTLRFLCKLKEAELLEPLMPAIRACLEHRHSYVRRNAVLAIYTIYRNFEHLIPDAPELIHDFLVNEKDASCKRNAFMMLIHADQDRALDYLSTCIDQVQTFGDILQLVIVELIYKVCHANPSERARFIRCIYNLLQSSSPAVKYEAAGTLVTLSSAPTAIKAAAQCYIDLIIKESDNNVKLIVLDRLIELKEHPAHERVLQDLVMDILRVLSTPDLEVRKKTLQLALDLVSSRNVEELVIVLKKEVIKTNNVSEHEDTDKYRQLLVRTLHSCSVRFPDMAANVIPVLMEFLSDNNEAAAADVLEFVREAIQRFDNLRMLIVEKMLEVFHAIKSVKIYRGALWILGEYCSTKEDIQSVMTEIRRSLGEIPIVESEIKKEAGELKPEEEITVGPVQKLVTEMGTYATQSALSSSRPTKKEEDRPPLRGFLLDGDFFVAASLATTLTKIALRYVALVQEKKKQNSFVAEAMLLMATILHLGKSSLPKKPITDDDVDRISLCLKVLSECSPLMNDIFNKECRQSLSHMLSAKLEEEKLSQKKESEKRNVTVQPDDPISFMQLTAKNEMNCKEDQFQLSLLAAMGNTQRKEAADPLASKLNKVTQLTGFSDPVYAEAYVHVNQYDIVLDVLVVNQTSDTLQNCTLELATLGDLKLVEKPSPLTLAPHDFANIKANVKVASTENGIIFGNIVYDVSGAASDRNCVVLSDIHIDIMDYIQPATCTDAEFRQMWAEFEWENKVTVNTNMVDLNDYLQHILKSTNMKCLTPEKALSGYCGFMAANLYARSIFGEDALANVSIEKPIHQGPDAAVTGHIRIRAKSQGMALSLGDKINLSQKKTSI
UniProt Q96FN4: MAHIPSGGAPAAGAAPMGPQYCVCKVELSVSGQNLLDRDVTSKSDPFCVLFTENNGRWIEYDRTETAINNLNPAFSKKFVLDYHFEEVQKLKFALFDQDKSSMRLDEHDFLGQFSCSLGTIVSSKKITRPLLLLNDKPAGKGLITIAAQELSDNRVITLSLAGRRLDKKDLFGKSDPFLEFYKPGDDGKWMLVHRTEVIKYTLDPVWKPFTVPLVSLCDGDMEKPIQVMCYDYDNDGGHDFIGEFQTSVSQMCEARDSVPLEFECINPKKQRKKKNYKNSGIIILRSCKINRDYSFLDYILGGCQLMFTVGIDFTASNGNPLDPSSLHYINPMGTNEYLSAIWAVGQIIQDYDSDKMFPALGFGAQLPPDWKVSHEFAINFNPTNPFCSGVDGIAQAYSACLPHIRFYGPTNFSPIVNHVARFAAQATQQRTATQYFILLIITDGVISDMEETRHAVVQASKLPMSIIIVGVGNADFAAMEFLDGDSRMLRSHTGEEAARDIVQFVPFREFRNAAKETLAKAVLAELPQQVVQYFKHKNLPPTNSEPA
UniProt A8TX70: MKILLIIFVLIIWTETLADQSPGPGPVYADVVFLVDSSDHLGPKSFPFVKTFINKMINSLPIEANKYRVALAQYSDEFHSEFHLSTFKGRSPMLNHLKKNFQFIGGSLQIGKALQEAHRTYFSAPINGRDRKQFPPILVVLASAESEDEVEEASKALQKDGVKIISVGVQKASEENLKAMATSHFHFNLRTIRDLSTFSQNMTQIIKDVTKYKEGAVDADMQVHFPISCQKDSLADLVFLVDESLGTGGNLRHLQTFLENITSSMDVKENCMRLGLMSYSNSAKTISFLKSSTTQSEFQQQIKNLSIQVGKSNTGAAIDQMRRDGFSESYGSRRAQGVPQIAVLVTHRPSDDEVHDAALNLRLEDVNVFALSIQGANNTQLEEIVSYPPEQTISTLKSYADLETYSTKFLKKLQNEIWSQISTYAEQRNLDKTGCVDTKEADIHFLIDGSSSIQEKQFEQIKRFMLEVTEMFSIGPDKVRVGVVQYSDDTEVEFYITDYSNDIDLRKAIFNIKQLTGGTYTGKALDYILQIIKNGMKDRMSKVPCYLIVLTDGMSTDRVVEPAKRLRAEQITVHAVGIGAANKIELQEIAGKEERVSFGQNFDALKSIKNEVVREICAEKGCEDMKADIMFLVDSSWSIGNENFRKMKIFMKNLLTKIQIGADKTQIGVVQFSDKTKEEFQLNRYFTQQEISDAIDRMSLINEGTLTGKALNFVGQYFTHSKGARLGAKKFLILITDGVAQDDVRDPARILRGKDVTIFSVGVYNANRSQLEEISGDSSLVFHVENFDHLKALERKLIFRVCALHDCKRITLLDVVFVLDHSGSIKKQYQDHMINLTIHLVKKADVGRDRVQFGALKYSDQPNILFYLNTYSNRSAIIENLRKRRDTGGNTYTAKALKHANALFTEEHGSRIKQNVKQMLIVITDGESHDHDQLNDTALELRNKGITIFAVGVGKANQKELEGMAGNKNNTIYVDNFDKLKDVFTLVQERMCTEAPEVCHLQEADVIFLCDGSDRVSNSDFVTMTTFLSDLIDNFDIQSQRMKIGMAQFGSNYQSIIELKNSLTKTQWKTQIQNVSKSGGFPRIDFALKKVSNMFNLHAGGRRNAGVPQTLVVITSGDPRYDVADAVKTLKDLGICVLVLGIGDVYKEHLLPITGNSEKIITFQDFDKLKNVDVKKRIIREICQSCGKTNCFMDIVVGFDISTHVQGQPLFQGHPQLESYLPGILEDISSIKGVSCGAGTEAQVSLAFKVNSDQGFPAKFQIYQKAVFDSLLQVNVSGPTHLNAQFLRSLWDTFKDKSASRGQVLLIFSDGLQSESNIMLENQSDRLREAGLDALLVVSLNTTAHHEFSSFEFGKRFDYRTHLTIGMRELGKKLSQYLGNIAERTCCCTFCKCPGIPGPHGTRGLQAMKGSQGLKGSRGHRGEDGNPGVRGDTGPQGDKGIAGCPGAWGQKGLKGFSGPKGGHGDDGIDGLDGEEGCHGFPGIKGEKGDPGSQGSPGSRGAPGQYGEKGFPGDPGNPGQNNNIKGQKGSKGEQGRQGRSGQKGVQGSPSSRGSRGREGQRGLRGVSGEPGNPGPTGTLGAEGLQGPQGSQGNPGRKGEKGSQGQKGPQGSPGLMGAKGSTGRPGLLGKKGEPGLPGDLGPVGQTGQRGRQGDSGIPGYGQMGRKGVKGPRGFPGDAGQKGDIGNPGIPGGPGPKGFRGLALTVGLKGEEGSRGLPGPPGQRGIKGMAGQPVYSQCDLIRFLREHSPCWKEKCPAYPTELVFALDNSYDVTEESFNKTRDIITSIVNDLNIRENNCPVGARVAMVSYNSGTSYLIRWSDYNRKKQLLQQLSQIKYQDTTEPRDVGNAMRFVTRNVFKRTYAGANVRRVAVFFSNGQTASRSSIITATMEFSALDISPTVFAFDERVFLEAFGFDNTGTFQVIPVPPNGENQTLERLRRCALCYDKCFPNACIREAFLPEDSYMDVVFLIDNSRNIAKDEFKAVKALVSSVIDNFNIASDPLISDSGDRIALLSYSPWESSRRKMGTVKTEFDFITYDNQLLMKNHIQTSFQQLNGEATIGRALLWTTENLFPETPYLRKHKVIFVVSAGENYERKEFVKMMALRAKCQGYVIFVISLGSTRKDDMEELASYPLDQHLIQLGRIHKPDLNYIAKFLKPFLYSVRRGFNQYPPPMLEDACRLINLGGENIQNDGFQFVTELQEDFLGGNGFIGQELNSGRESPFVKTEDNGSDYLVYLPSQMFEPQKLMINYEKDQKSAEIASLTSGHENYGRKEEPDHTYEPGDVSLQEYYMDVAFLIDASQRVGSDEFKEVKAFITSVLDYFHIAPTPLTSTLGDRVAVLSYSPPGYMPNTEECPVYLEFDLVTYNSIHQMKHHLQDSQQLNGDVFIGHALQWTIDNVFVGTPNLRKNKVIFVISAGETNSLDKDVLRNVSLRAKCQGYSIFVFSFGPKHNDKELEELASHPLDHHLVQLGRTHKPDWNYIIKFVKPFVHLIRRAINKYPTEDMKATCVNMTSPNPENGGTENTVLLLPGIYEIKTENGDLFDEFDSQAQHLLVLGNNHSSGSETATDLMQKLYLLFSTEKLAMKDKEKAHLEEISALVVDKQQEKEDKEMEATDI
UniProt P20674, whole entry, looked up: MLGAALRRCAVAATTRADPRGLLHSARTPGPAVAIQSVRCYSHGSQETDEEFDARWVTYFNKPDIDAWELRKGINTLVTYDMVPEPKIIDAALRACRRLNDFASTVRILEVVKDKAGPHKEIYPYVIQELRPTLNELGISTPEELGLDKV
UniProt Q9H9E3: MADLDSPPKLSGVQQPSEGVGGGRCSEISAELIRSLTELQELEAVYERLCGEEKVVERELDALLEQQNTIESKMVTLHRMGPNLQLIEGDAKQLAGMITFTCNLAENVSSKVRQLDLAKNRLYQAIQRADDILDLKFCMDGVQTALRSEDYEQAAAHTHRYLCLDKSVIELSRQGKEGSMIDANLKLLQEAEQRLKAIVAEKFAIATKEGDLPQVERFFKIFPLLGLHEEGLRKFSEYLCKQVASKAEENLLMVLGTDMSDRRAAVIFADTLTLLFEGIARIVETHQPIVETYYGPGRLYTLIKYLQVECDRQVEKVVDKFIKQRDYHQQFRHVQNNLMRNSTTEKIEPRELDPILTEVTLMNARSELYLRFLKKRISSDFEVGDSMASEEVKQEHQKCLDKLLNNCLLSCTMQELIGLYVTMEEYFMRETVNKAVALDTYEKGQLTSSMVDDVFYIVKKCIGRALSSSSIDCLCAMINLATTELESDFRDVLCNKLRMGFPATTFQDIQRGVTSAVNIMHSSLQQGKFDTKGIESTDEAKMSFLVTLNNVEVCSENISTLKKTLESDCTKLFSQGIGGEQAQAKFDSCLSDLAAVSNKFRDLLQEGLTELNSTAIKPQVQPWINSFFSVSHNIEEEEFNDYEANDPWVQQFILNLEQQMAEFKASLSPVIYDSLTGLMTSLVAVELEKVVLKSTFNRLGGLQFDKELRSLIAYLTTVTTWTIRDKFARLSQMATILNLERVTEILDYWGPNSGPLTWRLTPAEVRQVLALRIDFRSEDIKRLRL
UniProt P36551: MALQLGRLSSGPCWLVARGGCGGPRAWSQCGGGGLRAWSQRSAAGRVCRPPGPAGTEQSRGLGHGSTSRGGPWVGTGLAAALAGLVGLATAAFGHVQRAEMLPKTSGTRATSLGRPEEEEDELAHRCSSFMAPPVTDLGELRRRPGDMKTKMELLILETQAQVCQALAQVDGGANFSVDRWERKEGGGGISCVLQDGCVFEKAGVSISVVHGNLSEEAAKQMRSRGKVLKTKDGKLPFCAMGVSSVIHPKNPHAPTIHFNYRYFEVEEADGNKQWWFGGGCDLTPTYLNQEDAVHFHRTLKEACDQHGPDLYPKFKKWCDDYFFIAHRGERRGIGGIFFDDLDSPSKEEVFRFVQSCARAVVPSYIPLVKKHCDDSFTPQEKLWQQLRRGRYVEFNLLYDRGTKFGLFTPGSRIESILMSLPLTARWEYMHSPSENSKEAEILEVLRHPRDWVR
UniProt O95628: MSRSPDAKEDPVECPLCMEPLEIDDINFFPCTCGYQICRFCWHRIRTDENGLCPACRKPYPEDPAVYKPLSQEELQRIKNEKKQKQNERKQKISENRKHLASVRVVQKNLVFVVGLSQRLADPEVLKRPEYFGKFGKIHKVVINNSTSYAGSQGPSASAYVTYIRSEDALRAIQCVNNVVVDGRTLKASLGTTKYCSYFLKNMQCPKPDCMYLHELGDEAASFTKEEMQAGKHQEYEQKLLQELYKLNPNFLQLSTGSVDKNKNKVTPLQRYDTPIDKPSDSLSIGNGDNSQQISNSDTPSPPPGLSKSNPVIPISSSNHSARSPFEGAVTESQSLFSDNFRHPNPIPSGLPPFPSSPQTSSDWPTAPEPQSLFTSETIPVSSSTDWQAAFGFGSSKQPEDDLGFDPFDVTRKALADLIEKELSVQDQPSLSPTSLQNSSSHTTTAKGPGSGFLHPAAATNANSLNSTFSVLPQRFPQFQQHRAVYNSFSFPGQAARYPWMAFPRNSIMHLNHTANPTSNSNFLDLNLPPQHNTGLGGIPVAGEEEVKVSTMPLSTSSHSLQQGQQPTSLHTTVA
UniProt O14548: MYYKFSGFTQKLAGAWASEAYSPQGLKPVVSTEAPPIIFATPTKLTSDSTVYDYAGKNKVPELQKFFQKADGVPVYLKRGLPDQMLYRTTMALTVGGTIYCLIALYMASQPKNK

Legend:
Assay in all cases: log2 fold change, soluble protein after heating vs DMSO (PISA); higher = thermal stabilisation; K562 lysate, 10 uM; active = over 0.2 and 3.5 SD of the protein, either way, in both replicates (recomputed)
lapatinib = compound: CS(=O)(=O)CCNCc1ccc(-c2ccc3ncnc(Nc4ccc(OCc5cccc(F)c5)c(Cl)c4)c3c2)o1 [lapatinib]
Procedure, shortened: (§1)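 To prepare the extract, K562 pellets were dounce-homogenised in PBS pH 7.4 with 1 mM MgCl2, giving crude material at 1 mg/mL protein. This was treated with 10 μM compound for 30 min, then heated in aliquots for 3 min over 48°C-58°C before pooling and addition of NP-40 to 0.5% at 4°C. Centrifugation at 21,000xg for 90 min left soluble protein in the supernatant, which TMTpro 16plex LC-MS/MS quantified with equalised channel sums. Results are log-two fold changes in thermal stability compared with solvent controls, from duplicates.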

pictilisib = compound: CS(=O)(=O)N1CCN(Cc2cc3nc(-c4cccc5[nH]ncc45)nc(N4CCOCC4)c3s2)CC1 [pictilisib]
Procedure, shortened: as §1

crizotinib = compound: C[C@@H](Oc1cc(-c2cnn(C3CCNCC3)c2)cnc1N)c1c(Cl)ccc(F)c1Cl [crizotinib]
Procedure, shortened: as §1

[1] = compound: C[C@H](C1=CC=C(C=C1)C(=O)NC2=C3C=CNC3=NC=C2)N
Procedure, shortened: as §1

duvelisib = compound: C[C@H](Nc1ncnc2nc[nH]c12)c1cc2cccc(Cl)c2c(=O)n1-c1ccccc1 [duvelisib]
Procedure, shortened: as §1

gandotinib = compound: Cc1cc(Nc2cc(CN3CCOCC3)c3nc(C)c(Cc4ccc(Cl)cc4F)n3n2)n[nH]1 [gandotinib]
Procedure, shortened: as §1

tozasertib = compound: Cc1cc(Nc2cc(N3CCN(C)CC3)nc(Sc3ccc(NC(=O)C4CC4)cc3)n2)n[nH]1 [tozasertib]
Procedure, shortened: as §1

doramapimod = compound: Cc1ccc(-n2nc(C(C)(C)C)cc2NC(=O)Nc2ccc(OCCN3CCOCC3)c3ccccc23)cc1 [doramapimod]
Procedure, shortened: as §1

bafetinib = compound: Cc1ccc(NC(=O)c2ccc(CN3CC[C@H](N(C)C)C3)c(C(F)(F)F)c2)cc1Nc1nccc(-c2cncnc2)n1 [bafetinib]
Procedure, shortened: as §1

[2] = compound: Cc1cccc(CC(=O)N2CCc3c2ccc(-c2cn(C)c4ncnc(N)c24)c3F)n1
Procedure, shortened: as §1

nilotinib = compound: Cc1cn(-c2cc(NC(=O)c3ccc(C)c(Nc4nccc(-c5cccnc5)n4)c3)cc(C(F)(F)F)c2)cn1 [nilotinib]
Procedure, shortened: as §1

[3] = compound: Cc1nc(Nc2n[nH]c3c2CN(C(=O)N[C@H](CN(C)C)c2ccccc2)C3(C)C)c2sccc2n1
Procedure, shortened: as §1

dasatinib = compound: Cc1nc(Nc2ncc(C(=O)Nc3c(C)cccc3Cl)s2)cc(N2CCN(CCO)CC2)n1 [dasatinib]
Procedure, shortened: as §1

[4] = compound: Cc1ncc(-c2ccnc(Nc3ccc(S(C)(=O)=O)cc3)n2)n1C(C)C
Procedure, shortened: as §1

[5] = compound: Cn1cc(-c2ccc3c(c2)CCN3C(=O)Cc2cccc(C(F)(F)F)c2)c2c(N)ncnc21
Procedure, shortened: as §1

quisinostat = compound: Cn1cc(CNCC2CCN(c3ncc(C(=O)NO)cn3)CC2)c2ccccc21 [quisinostat]
Procedure, shortened: as §1

tipifarnib = compound: Cn1cncc1[C@@](N)(c1ccc(Cl)cc1)c1ccc2c(c1)c(-c1cccc(Cl)c1)cc(=O)n2C [tipifarnib]
Procedure, shortened: as §1

[6] = compound: NC(=O)Nc1cc(-c2cccc(F)c2)sc1C(=O)N[C@H]1CCCNC1
Procedure, shortened: as §1

[7] = compound: NC(=O)c1cnc(N[C@@H]2CCCC[C@@H]2N)nc1Nc1cccc(-n2nccn2)c1
Procedure, shortened: as §1

[8] = compound: NC1(c2ccc(-c3nc4ccn5c(=O)[nH]nc5c4cc3-c3ccccc3)cc2)CCC1
Procedure, shortened: as §1

Measured: log2 fold change

COCH (UniProt O43405)
inactive: lapatinib 0.104 | pictilisib 0.021 | crizotinib -0.004 | [1] -0.163 | duvelisib -0.033 | gandotinib 0.001 | tozasertib 0.016 | doramapimod 0.006 | bafetinib -0.062 | [2] -0.021 | nilotinib -0.155 | [3] -0.084 | dasatinib 0.013 | [4] 0.097 | [5] -0.014 | quisinostat 0.039 | tipifarnib 0.011 | [6] 0.003 | [7] 0.007 | [8] -0.078

COA3 (UniProt Q9Y2R0)
inactive: lapatinib 0.044 | pictilisib -0.01 | crizotinib -0.014 | [1] -0.023 | duvelisib 0.039 | gandotinib 0.015 | tozasertib 0.047 | doramapimod 0.017 | bafetinib -0.062 | [2] 0.039 | nilotinib 0.047 | [3] 0.026 | dasatinib 0.015 | [4] 0.007 | [5] -0.018 | quisinostat 0.002 | tipifarnib 0.029 | [6] -0.011 | [7] 0.017 | [8] 0.003

CNOT6 (UniProt Q9ULM6)
inactive: lapatinib -0.144 | pictilisib -0.062 | crizotinib 0.008 | [1] -0.064 | duvelisib -0.009 | gandotinib -0.025 | tozasertib -0.072 | doramapimod 0.038 | bafetinib 0.015 | [2] -0.017 | nilotinib 0.045 | [3] -0.004 | dasatinib -0.012 | [4] -0.024 | [5] 0.01 | quisinostat 0.014 | tipifarnib 0.094 | [6] 0.036 | [7] 0.006 | [8] -0.006

CNPY3 (UniProt Q9BT09)
inactive: lapatinib -0.025 | pictilisib -0.028 | crizotinib 0.061 | [1] 0.027 | duvelisib 0.012 | gandotinib -0.015 | tozasertib -0.021 | doramapimod -0.003 | bafetinib 0.066 | [2] -0.019 | nilotinib -0.124 | [3] -0.044 | dasatinib 0.027 | [4] -0.117 | [5] -0.03 | quisinostat 0.033 | tipifarnib -0.006 | [6] -0.006 | [7] -0.001 | [8] 0.012

COPB1 (UniProt P53618)
inactive: lapatinib -0.013 | pictilisib -0.016 | crizotinib -0.003 | [1] -0.08 | duvelisib 0.029 | gandotinib 0.043 | tozasertib -0.025 | doramapimod 0.003 | bafetinib -0.03 | [2] 0.056 | nilotinib 0.005 | [3] -0.007 | dasatinib 0.01 | [4] -0.003 | [5] 0.001 | quisinostat -0.046 | tipifarnib -0.021 | [6] 0.016 | [7] 0.003 | [8] -0.012

COPS2 isoform 2 (UniProt P61201)
inactive: lapatinib -0.044 | pictilisib -0.005 | crizotinib 0.034 | [1] 0.024 | duvelisib -0.002 | gandotinib -0.044 | tozasertib 0.017 | doramapimod -0.053 | bafetinib 0.004 | [2] -0.047 | nilotinib 0.007 | [3] -0.022 | dasatinib -0.025 | [4] -0.005 | [5] -0.004 | quisinostat 0.084 | tipifarnib 0.023 | [6] 0.004 | [7] -0.016 | [8] -0.002

CPNE2 (UniProt Q96FN4)
inactive: lapatinib 0.036 | pictilisib -0.179 | crizotinib 0.045 | [1] -0.323 | duvelisib 0.034 | gandotinib 0.119 | tozasertib 0.014 | doramapimod -0.083 | bafetinib 0.296 | [2] 0.229 | nilotinib -0.125 | [3] 0.07 | dasatinib 0.237 | [4] -0.017 | [5] -0.058 | quisinostat -0.004 | tipifarnib 0.054 | [6] 0.035 | [7] 0.008 | [8] -0.017

COL6A5 (UniProt A8TX70)
active: [1] -0.966 | [2] 0.486
inactive: lapatinib -0.07 | pictilisib -0.035 | crizotinib -0.197 | duvelisib 0.013 | gandotinib 0.295 | tozasertib -0.099 | doramapimod 0.053 | bafetinib -0.13 | nilotinib 0.134 | [3] 0.009 | dasatinib -0.11 | [4] -0.185 | [5] -0.038 | quisinostat -0.377 | tipifarnib -0.236 | [6] 0.017 | [7] 0.051 | [8] -0.014

COX5A (UniProt P20674)
inactive: lapatinib 0.036 | pictilisib -0.059 | crizotinib 0.03 | [1] 0.307 | duvelisib 0.036 | gandotinib -0.188 | tozasertib -0.032 | doramapimod -0.002 | bafetinib 0.055 | [2] -0.196 | nilotinib 0.164 | [3] 0.02 | dasatinib 0 | [4] 0.084 | [5] 0.024 | quisinostat 0.06 | tipifarnib 0.04 | [6] -0.062 | [7] -0.053 | [8] -0.004

COG4 (UniProt Q9H9E3)
inactive: lapatinib -0.02 | pictilisib -0.164 | crizotinib -0.088 | [1] -0.014 | duvelisib 0.022 | gandotinib -0.207 | tozasertib 0.018 | doramapimod 0.026 | bafetinib 0.025 | [2] 0.036 | nilotinib -0.038 | [3] -0.01 | dasatinib -0.093 | [4] 0.008 | [5] 0.048 | quisinostat -0.047 | tipifarnib 0.006 | [6] 0.004 | [7] 0.001 | [8] 0.055

CPOX (UniProt P36551)
inactive: lapatinib -0.005 | pictilisib 0.016 | crizotinib 0.026 | [1] 0.021 | duvelisib 0.041 | gandotinib 0.065 | tozasertib -0.006 | doramapimod -0.009 | bafetinib 0.052 | [2] -0.04 | nilotinib 0.072 | [3] -0.027 | dasatinib 0.077 | [4] -0.021 | [5] -0.012 | quisinostat 0.005 | tipifarnib 0.001 | [6] -0.018 | [7] -0.013 | [8] -0.018

CPNE1 (UniProt Q99829)
inactive: lapatinib 0.03 | pictilisib -0.052 | crizotinib -0.025 | [1] -0.065 | duvelisib 0.015 | gandotinib 0.018 | tozasertib 0.043 | doramapimod 0.044 | bafetinib 0.006 | [2] 0.04 | nilotinib -0.028 | [3] -0.008 | dasatinib 0.006 | [4] 0.015 | [5] 0.002 | quisinostat -0.021 | tipifarnib 0.003 | [6] 0.033 | [7] -0.003 | [8] -0.032

CNOT4 isoform 6 (UniProt O95628)
active: doramapimod -0.234
inactive: lapatinib 0.039 | pictilisib -0.06 | crizotinib 0.146 | [1] -0.093 | duvelisib -0.011 | gandotinib 0.075 | tozasertib -0.027 | bafetinib -0.054 | [2] 0.028 | nilotinib -0.004 | [3] 0.053 | dasatinib 0.034 | [4] 0.057 | [5] 0.013 | quisinostat 0.107 | tipifarnib -0.018 | [6] 0.041 | [7] -0.022 | [8] 0.008

CPNE7 (UniProt Q9UBL6)
inactive: lapatinib -0.077 | pictilisib -0.067 | crizotinib 0.017 | [1] -0.203 | duvelisib -0.026 | gandotinib 0.077 | tozasertib 0.103 | doramapimod -0.063 | bafetinib 0.015 | [2] 0.111 | nilotinib 0.018 | [3] 0.019 | dasatinib 0.022 | [4] 0.035 | [5] 0.053 | quisinostat -0.055 | tipifarnib 0.001 | [6] 0.035 | [7] 0.034 | [8] -0.053

COMMD7 (UniProt Q86VX2)
inactive: lapatinib 0.027 | pictilisib 0.032 | crizotinib -0.018 | [1] -0.096 | duvelisib 0.012 | gandotinib 0.073 | tozasertib -0.023 | doramapimod 0.025 | bafetinib -0.019 | [2] 0.112 | nilotinib 0.02 | [3] -0.015 | dasatinib -0.006 | [4] 0.019 | [5] -0.014 | quisinostat 0.028 | tipifarnib 0 | [6] -0.03 | [7] -0.005 | [8] -0.015

COX7A2L (UniProt O14548)
inactive: lapatinib 0.03 | pictilisib 0.113 | crizotinib -0.049 | [1] -0.044 | duvelisib 0.004 | gandotinib 0.049 | tozasertib 0.049 | doramapimod 0.055 | bafetinib -0.039 | [2] 0.123 | nilotinib 0.003 | [3] 0.063 | dasatinib 0.056 | [4] 0.078 | [5] 0.014 | quisinostat -0.063 | tipifarnib -0.011 | [6] -0.008 | [7] -0.03 | [8] -0.033

Quoted from the listing (two entries):
CPNE1 (UniProt Q99829)
inactive: lapatinib 0.03 | pictilisib -0.052 | crizotinib -0.025 | [1] -0.065 | duvelisib 0.015 | gandotinib 0.018 | tozasertib 0.043 | doramapimod 0.044 | bafetinib 0.006 | [2] 0.04 | nilotinib -0.028 | [3] -0.008 | dasatinib 0.006 | [4] 0.015 | [5] 0.002 | quisinostat -0.021 | tipifarnib 0.003 | [6] 0.033 | [7] -0.003 | [8] -0.032

CNOT4 isoform 6 (UniProt O95628)
active: doramapimod -0.234
inactive: lapatinib 0.039 | pictilisib -0.06 | crizotinib 0.146 | [1] -0.093 | duvelisib -0.011 | gandotinib 0.075 | tozasertib -0.027 | bafetinib -0.054 | [2] 0.028 | nilotinib -0.004 | [3] 0.053 | dasatinib 0.034 | [4] 0.057 | [5] 0.013 | quisinostat 0.107 | tipifarnib -0.018 | [6] 0.041 | [7] -0.022 | [8] 0.008
